Measurements from paper PMC12540732.

Chains of the proteins cited; added tags and fusions are not shown.
UniProt P54578: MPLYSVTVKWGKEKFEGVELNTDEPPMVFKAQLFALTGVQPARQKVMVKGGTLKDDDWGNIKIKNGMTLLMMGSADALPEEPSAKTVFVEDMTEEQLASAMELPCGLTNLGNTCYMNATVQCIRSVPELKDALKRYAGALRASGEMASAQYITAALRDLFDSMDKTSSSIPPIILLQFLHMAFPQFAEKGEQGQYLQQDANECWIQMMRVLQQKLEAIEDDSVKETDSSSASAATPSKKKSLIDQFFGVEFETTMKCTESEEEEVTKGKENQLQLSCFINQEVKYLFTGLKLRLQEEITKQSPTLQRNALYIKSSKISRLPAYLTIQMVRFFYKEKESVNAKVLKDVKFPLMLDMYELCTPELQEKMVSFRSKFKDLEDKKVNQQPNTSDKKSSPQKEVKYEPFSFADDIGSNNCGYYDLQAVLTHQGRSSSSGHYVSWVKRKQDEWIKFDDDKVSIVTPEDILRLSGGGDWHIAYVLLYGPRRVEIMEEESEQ
UniProt P11142: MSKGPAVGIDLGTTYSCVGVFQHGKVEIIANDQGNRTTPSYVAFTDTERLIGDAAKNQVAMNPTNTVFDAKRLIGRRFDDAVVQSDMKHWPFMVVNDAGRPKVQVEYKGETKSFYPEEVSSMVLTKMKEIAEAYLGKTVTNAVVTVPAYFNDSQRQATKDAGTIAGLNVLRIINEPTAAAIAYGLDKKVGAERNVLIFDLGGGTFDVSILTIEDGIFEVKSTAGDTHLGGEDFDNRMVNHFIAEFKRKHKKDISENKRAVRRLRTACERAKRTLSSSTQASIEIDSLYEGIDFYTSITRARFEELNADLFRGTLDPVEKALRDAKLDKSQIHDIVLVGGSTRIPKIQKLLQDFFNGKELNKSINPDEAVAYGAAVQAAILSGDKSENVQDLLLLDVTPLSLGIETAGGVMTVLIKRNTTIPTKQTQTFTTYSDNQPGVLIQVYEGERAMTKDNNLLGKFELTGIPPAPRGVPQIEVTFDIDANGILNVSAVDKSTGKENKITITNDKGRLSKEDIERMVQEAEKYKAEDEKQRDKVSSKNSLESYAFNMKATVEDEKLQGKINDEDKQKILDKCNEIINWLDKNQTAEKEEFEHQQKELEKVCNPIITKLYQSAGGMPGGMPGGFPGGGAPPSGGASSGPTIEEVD
UniProt P14902: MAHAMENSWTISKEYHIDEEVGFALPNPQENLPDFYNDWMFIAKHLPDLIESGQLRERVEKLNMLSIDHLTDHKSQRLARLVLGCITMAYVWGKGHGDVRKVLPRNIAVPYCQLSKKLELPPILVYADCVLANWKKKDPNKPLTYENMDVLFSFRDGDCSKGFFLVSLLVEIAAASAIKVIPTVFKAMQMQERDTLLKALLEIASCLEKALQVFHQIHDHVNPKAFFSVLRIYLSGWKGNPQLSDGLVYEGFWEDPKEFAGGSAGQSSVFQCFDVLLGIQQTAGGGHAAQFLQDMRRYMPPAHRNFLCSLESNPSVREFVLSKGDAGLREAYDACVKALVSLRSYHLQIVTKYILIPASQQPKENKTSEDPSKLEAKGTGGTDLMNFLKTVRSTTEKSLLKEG

Molecular target: USP14, bait of the Co-IP with mass spectrometry (UniProt P54578)
Experiment: affinity purification with mass spectrometry; Co-IP of USP14 followed by mass spectrometry; candidates intersected with the UbiBrowser 2.0 prediction; cells and antibody not told

binding	Substance
binds	HSC70 (from UniProt P11142 1-646)
binds	IDO1 (from UniProt P14902 1-403)

Results are given in words; binding and its absence hold for the method and conditions named. Binding seen in cells or lysates may run through a third protein. These calls come from enrichment with a bait or labelling near it, and not all partners need be listed.
